Data as given in PubChem BioAssay AID493246 (Drosophila RNAi Screening Center, 2011)
The deposit covers about 21,000 reagents; this is a random part of those that have a named target and a result. Over the whole deposit, 429 (2%) got an active call. 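Values are raw and not normalised between plates; calls rest on per-plate z-scores that were not deposited.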 Reagent sequences are not shown. Not stated in the record: the amount of reagent, the time to read-out.

Screen: 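Identify essential fly genes by loss of cell viability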 (primary screen)
System: Drosophila Kc and S2R+ cells
Reagent: long dsRNA against Drosophila genes
Read-out: 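Raw, unnormalised count of remaining cells in each well; per-plate z-scores of cell number underlie the calls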
Scale: Kc cell number and S2R+ cell number: higher = more cells remaining
Active means: 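Active when the per-plate z-score of cell number is 3 or more in the direction of fewer cells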

| Kc cell number, rep 1 | Kc cell number, rep 2 | S2R+ cell number, rep 1 | S2R+ cell number, rep 2 | Outcome | Gene | DRSC id |
| --- | --- | --- | --- | --- | --- | --- |
| 1.41e6 | 1.43e6 | 1.01e6 | 1.20e6 | inactive | CG6026 (GeneID 42287) | DRSC15950 |
| 1.48e6 | 1.60e6 | 1.28e6 | 3.22e5 | inactive | CG15169 (GeneID 35161) | DRSC02470 |
| 1.27e6 | 1.34e6 | 1.17e6 | 1.20e6 | inactive | Swip-1 (GeneID 35158) | DRSC02083 |
| 1.43e6 | 1.50e6 | 1.23e6 | 2.89e5 | inactive | Swip-1 (GeneID 35158) | DRSC02084 |
| 9.04e5 | 1.04e6 | 1.10e6 | 1.01e6 | inactive | CG6550 (GeneID 36954) | DRSC07001 |
| 1.19e6 | 1.46e6 | 6.72e5 | 7.67e5 | active | CG13847 (GeneID 42636) | DRSC14697 |
| 1.66e6 | 1.84e6 | 1.02e6 | 1.18e6 | inactive | Mst57Da (GeneID 47954) | DRSC16744 |
| 1.64e6 | 1.65e6 | 1.22e6 | 1.38e6 | inactive | mRpL52 (GeneID 35711) | DRSC06585 |
| 1.29e6 | 1.37e6 | 1.05e6 | 1.09e6 | inactive | Kdm4B (GeneID 318918) | DRSC06862 |
| 1.33e6 | 1.28e6 | 8.62e5 | 1.06e6 | inactive | E(Pc) (GeneID 36238) | DRSC05281 |
| 1.35e6 | 1.41e6 | 1.08e6 | 1.25e6 | inactive | E(Pc) (GeneID 36238) | DRSC07408 |
| 1.57e6 | 1.58e6 | 1.46e6 | 1.56e6 | inactive | Ada2b (GeneID 40966) | DRSC16531 |
| 1.48e6 | 1.41e6 | 7.36e5 | 8.44e5 | active | Spindly (GeneID 33578) | DRSC00430 |
| 1.34e6 | 1.38e6 | 9.76e5 | 1.14e6 | inactive | CG8944 (GeneID 32517) | DRSC20128 |
| 1.36e6 | 1.63e6 | 9.26e5 | 1.14e6 | inactive | CG2652 (GeneID 31250) | DRSC18501 |
| 1.44e6 | 1.53e6 | 1.14e6 | 1.26e6 | inactive | CG14478 (GeneID 36964) | DRSC06450 |
| 1.43e6 | 1.47e6 | 1.31e6 | 3.60e5 | inactive | CG15676 (GeneID 37472) | DRSC04267 |
| 1.47e6 | 1.23e6 | 7.88e5 | 7.15e5 | inactive | CG14356 (GeneID 41722) | DRSC14819 |
| 1.26e6 | 1.39e6 | 9.04e5 | 8.67e5 | inactive | CG1603 (GeneID 35683) | DRSC06602 |
| 1.54e6 | 1.62e6 | 1.25e6 | 1.40e6 | inactive | CG31823 (GeneID 326163) | DRSC01887 |
| 1.35e6 | 1.40e6 | 1.28e6 | 1.34e6 | inactive | EAChm (GeneID 39637) | DRSC10010 |
| 1.54e6 | 1.53e6 | 1.37e6 | 1.46e6 | inactive | CG33268 (GeneID 2768979) | DRSC10143 |
| 5.26e5 | – | 7.85e5 | – | inactive | CG2247 (GeneID 32111) | DRSC19844 |
| 1.32e6 | 1.41e6 | 9.98e5 | 1.13e6 | inactive | kipf (GeneID 40937) | DRSC15446 |
| 1.41e6 | 1.47e6 | 1.02e6 | 1.07e6 | inactive | Or98b (GeneID 43375) | DRSC16775 |
| 1.53e6 | 1.62e6 | 1.22e6 | 1.28e6 | inactive | D1 (GeneID 41095) | DRSC16638 |
| 1.38e6 | 1.49e6 | 1.16e6 | 1.27e6 | inactive | twr (GeneID 40815) | DRSC12491 |
| 1.59e6 | 1.52e6 | 1.45e6 | 1.50e6 | inactive | BBS5 (GeneID 40600) | DRSC12168 |

Laid out differently: 3 of the entries above
Kc cell number, rep 1	Kc cell number, rep 2	S2R+ cell number, rep 1	S2R+ cell number, rep 2	Outcome	Gene	DRSC id
1.36e6	1.63e6	9.26e5	1.14e6	inactive	CG2652 (GeneID 31250)	DRSC18501
1.44e6	1.53e6	1.14e6	1.26e6	inactive	CG14478 (GeneID 36964)	DRSC06450
1.43e6	1.47e6	1.31e6	3.60e5	inactive	CG15676 (GeneID 37472)	DRSC04267

The results go on:
| Kc cell number, rep 1 | Kc cell number, rep 2 | S2R+ cell number, rep 1 | S2R+ cell number, rep 2 | Outcome | Gene | DRSC id |
| --- | --- | --- | --- | --- | --- | --- |
| 1.55e6 | 1.58e6 | 1.05e6 | 1.18e6 | inactive | CG12479 (GeneID 50344) | DRSC19459 |
| 1.39e6 | 1.38e6 | 1.19e6 | 1.28e6 | inactive | SamDC (GeneID 34396) | DRSC03429 |
| 1.39e6 | 1.40e6 | 1.08e6 | 1.17e6 | inactive | erm (GeneID 326152) | DRSC00700 |
| 1.46e6 | 1.54e6 | 1.26e6 | 1.39e6 | inactive | Cpr78Cb (GeneID 40353) | DRSC11847 |
| 1.39e6 | 1.55e6 | 1.29e6 | 1.23e6 | inactive | Ppt2 (GeneID 34564) | DRSC02786 |
| 1.63e6 | 1.77e6 | 1.43e6 | 1.58e6 | inactive | CG14607 (GeneID 40869) | DRSC12551 |
| 1.65e6 | 1.78e6 | 1.25e6 | 1.46e6 | inactive | TotM (GeneID 33764) | DRSC02355 |
| 1.36e6 | 1.40e6 | 9.60e5 | 1.06e6 | inactive | CG31122 (GeneID 42221) | DRSC14787 |
| 1.26e6 | 1.18e6 | 1.09e6 | 1.20e6 | inactive | CG31122 (GeneID 42221) | DRSC16286 |
| 1.52e6 | 1.47e6 | 1.11e6 | 1.26e6 | inactive | CG31952 (GeneID 326179) | DRSC00428 |
| 1.58e6 | 1.61e6 | 1.12e6 | 1.23e6 | inactive | PIG-Wa (GeneID 33425) | DRSC00728 |
| 4.89e5 | – | 8.81e5 | – | inactive | CG1575 (GeneID 31731) | DRSC18069 |
| 1.54e6 | 1.42e6 | 1.13e6 | 1.17e6 | inactive | CG11349 (GeneID 38552) | DRSC08179 |
| 1.46e6 | 1.50e6 | 1.02e6 | 1.16e6 | inactive | CecA1 (GeneID 43596) | DRSC16603 |
| 1.59e6 | 1.56e6 | 1.02e6 | 1.27e6 | inactive | CG42531 (GeneID 8673972) | DRSC05318 |
| 1.74e6 | 1.90e6 | 1.26e6 | 1.37e6 | inactive | CG8243 (GeneID 35890) | DRSC07122 |
| 1.54e6 | 1.47e6 | 1.06e6 | 1.13e6 | inactive | IP3K2 (GeneID 32285) | DRSC19500 |
| 1.63e6 | 1.57e6 | 1.08e6 | 1.21e6 | inactive | IP3K2 (GeneID 32285) | DRSC19747 |
| 1.73e6 | 1.84e6 | 1.25e6 | 1.39e6 | inactive | Cpr60D (GeneID 246492) | DRSC04492 |
| 1.07e6 | 1.12e6 | 1.04e6 | 1.04e6 | inactive | eIF4E1 (GeneID 45525) | DRSC11342 |
| 1.57e6 | 1.58e6 | 9.99e5 | 1.17e6 | inactive | Pgcl (GeneID 30984) | DRSC18815 |
| 1.37e6 | 1.48e6 | 1.08e6 | 1.26e6 | inactive | hpRNA:CR32207 (GeneID 10178801) | DRSC09616 |
| 1.63e6 | 1.66e6 | 1.27e6 | 1.52e6 | inactive | CG2812 (GeneID 37801) | DRSC04319 |
| 1.31e6 | 1.39e6 | 8.91e5 | 9.94e5 | inactive | Letm1 (GeneID 37912) | DRSC04476 |
| 1.73e6 | 1.62e6 | 1.04e6 | 1.11e6 | inactive | Prp5 (GeneID 32464) | DRSC19975 |
| 5.65e5 | – | 8.18e5 | – | inactive | CG7920 (GeneID 43562) | DRSC16346 |
| 1.56e6 | 1.85e6 | 1.33e6 | 1.56e6 | inactive | Or85b (GeneID 41007) | DRSC16765 |
| 1.67e6 | 1.61e6 | 9.61e5 | 1.04e6 | inactive | ND-B16.6 (GeneID 31578) | DRSC18306 |
| 1.48e6 | 1.53e6 | 1.02e6 | 1.09e6 | inactive | CG7824 (GeneID 43530) | DRSC16321 |
| 1.32e6 | 1.36e6 | 1.14e6 | 1.23e6 | inactive | Ttc7 (GeneID 48387) | DRSC04836 |
| 1.42e6 | 1.51e6 | 9.47e5 | 1.13e6 | inactive | CSN4 (GeneID 35759) | DRSC07350 |
